Measured values reported in PubChem BioAssay AID504467 (National Center for Advancing Translational Sciences (NCATS), 2011).
About 7,700 (2.3%) of roughly 330,000 compounds were called active. Inconclusive results, whose numbers are uncertain, are shown with a selection of clear calls. Calls follow the shape of the dose curve; as a rule, active = well fitted inhibition curve with a large enough effect; inconclusive = small, poorly fitted or top-dose-only effect, or effect the other way; inactive = flat fitted curve, though single readings scatter. Potencies of inconclusive entries are doubtful fits and often do not repeat.

assay: qHTS screen for small molecules that inhibit ELG1-dependent DNA repair in human embryonic kidney (HEK293T) cells expressing luciferase-tagged ELG1; conditions: HEK293T ELG1-luciferase reporter, luminescence, 16 h, DNA damage induced by 5-fluorouridine; activity change, negative = inhibition: at 46.1 µM (top of the series); also: nearly all actives have a fitted effect of over 55% in size
Outline: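 Overnight (16 hr) co-exposure of 2,000 cells/well to 5-fluorouridine and compound at 37 °C preceded detection. Luciferase was quantified via ONE-Glo luminescence; loss of signal denotes inhibition.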
% is scaled to controls: 0 for no effect and ±100 for the full control effect; potency is read from the fitted curve at half-maximal effect.

Row | SMILES | activity change, negative = inhibition | Potency
1 | Cc1cc(C)c(NC(=O)CSCc2c(C)noc2C)c(C)c1 | inactive: -6.57% | –
2 | COC(=O)c1sc(=S)n(-c2cc(F)ccc2F)c1N | inactive: 2.19% | –
3 | O=C(NC1CCCCC1)c1ccc2c(=O)n(CC3CCCO3)c(=O)[nH]c2c1 (stereo not given) | – | inconclusive: 3.26 µM [inhibitor, partial curve, poor fit]
4 | Cc1ccc2nc(Nc3ccccc3O)nc(-c3ccccc3)c2c1 | – | inconclusive: 25.9 µM [inhibitor, partial curve, poor fit]
5 | CCc1cc(CNC(=O)C2CCC(=O)N(CCc3cccc(F)c3)C2)on1 (stereo not given) | inactive: 12.1% | –
6 | NC(=O)CCn1c(C(=O)c2ccc(Cl)cc2)c2ccccc2[n+]1[O-] | – | inconclusive: 25.9 µM [activator, single point]
7 | Oc1ccc(N=Nc2ccc3c(c2)OCCO3)c(O)c1 | – | inconclusive: 2.06 µM [activator, partial curve]
8 | Cc1cc(C)n(-c2ccc(Cl)c(C(=O)NCc3ccccc3)n2)n1 | – | inconclusive: 14.6 µM [inhibitor, single point]
9 | CCn1c(COc2ccccc2C)nnc1SCC(=O)NC1CCCC1 | – | inconclusive: 28.2 µM [inhibitor, partial curve, poor fit]
10 | Cc1oc2c(C)c3oc(=O)c(CCC(=O)N[C@@H](CC(C)C)C(=O)O)c(C)c3cc2c1C | inactive: 0.0616% | –
11 | Cc1cc(C)c2c(C)c(C(=O)Nc3c(C)n(C)n(-c4ccccc4)c3=O)oc2c1 | – | inconclusive: 6.51 µM [inhibitor, partial curve, poor fit]
12 | COc1ccc(NC(=O)NCCN2CCN(c3ccc(C)cc3)CC2)c(Cl)c1 | inactive: -0.113% | –
13 | COc1cccc(CNC(=O)CNS(=O)(=O)c2ccc(Br)s2)c1 | inactive: 0% | –
14 | COc1cccc(/C=N\NC(=O)c2ccc(C)nc2)c1 | – | inconclusive: 23.1 µM [activator, partial curve, poor fit]
15 | C=CCn1c(SCCNC(C)=O)nc2cc(-c3ccccc3)sc2c1=O | inactive: 1.42% | –
16 | CC(=O)c1cccc(NC(=O)C2CCCN2S(=O)(=O)c2cccc3cccnc23)c1 (stereo not given) | – | inconclusive: 29.1 µM [inhibitor, partial curve, poor fit]
17 | COCCn1cc(C(=S)N2CCOCC2)c2ccccc21 | – | inconclusive: 23.1 µM [activator, partial curve, poor fit]
18 | O=[N+]([O-])c1c(Nc2ccc(O)cc2)cc(Cl)c2nonc12 | – | inconclusive: 29.1 µM [inhibitor, single point]
19 | CCCC[n+]1ccn(C2=C([O-])c3ccccc3C(=O)/C2=N\S(=O)(=O)c2ccc(Cl)cc2)c1 | – | inconclusive: 14.6 µM [inhibitor, single point]
20 | Cc1nnc(SCc2nc(N)nc(Nc3ccccc3)n2)s1 | – | inconclusive: 17.8 µM [activator, partial curve, poor fit]
21 | O=C1/C(=C\c2ccco2)SC(=S)N1C1CCCCC1 | – | inconclusive: 35.5 µM [activator, single point]
22 | COc1ccc(C2=NOC(Cn3nc(-c4ccccc4)cc3C(=O)NCc3cccc(Br)c3)C2)cc1 (stereo not given) | – | inconclusive: 6.51 µM [inhibitor, single point]
23 | O=S(Cc1ccc(Br)cc1)Cc1nnc(SCc2ccc(Br)cc2)n1-c1ccccc1 (stereo not given) | – | inconclusive: 23.1 µM [inhibitor, single point]
24 | S=c1[nH]nc(C2CCCCC2)n1/N=C/c1c(Cl)cccc1Cl | inactive: 2.43% | –

Row | SMILES | activity change, negative = inhibition | Potency
25 | O=C(NCCc1c[nH]c2ccc(Cl)cc12)c1cccnc1 | – | inconclusive: 20.6 µM [inhibitor, partial curve, poor fit]
26 | CCOCCCNc1ccc(-c2ccccc2)nn1 | – | inconclusive: 18.4 µM [activator, partial curve]
27 | Cc1ccc(C(=O)Nc2nc(-c3ccc([N+](=O)[O-])cc3)cs2)o1 | inactive: 0.553% | –
28 | Cc1nn(-c2ccccn2)c2c1-c1nc(N3CCOCC3)ncc1CC2 | – | inconclusive: 6.51 µM [inhibitor, single point]
29 | COc1ccc(CCC(=O)Nc2ccc(C)c(S(=O)(=O)N(C)C)c2)cc1OC | – | inconclusive: 10.3 µM [inhibitor, partial curve]
30 | Cc1ccc(-c2nnc(OCC3CCCO3)c3ccccc23)cc1 (stereo not given) | inactive: 3.17% | –
31 | CCn1cnc2c1c(=O)[nH]c(=O)n2Cc1ccccc1 | – | inconclusive: 20.6 µM [activator, partial curve]
32 | Brc1ccc(/C=C/C=N/Nc2nc3ccccc3s2)cc1 | – | inconclusive: 28.2 µM [activator, single point]
33 | COc1cccc(Nc2ncccc2C(=O)Nc2ccccc2)c1 | – | inconclusive: 14.6 µM [inhibitor, partial curve, poor fit]
34 | CCOc1ccc2[nH]c(=O)c(CN(Cc3nnnn3Cc3ccco3)C3CCCCC3)cc2c1 | – | active: 10.3 µM
35 | Cc1ccc(Cn2ncc3c(N4CCOCC4)ncnc32)cc1 | – | inconclusive: 25.9 µM [inhibitor, single point]
36 | CCCCN(C)CCCNC(=O)c1cn(CC)c2ccc(S(=O)(=O)N3CCOCC3)cc2c1=O | – | inconclusive: 20.6 µM [activator, single point]
37 | CCOC(=O)c1c(C)noc1-c1ccc(Br)o1 | inactive: 7.02% | –
38 | Oc1ccc(N=Nc2ccccc2)cc1 | – | inconclusive: 20.6 µM [activator, single point]
39 | Cc1ccc(NC(=O)CSc2nnc(-c3ccco3)c(-c3ccco3)n2)cc1 | inactive: -0.331% | –
40 | CCOc1cc(/C=C2\SC(N)=NC2=O)ccc1O | – | inconclusive: 31.6 µM [activator, single point]
41 | COc1nc(N(c2ccccc2)c2ccccc2)nc(-n2ccnc2)n1 | – | inconclusive: 18.4 µM [inhibitor, single point]
42 | COc1cc(C(=O)Nc2ccc(S(=O)(=O)Nc3nccc(C)n3)cc2)cc(OC)c1OC | – | inconclusive: 29.1 µM [activator, single point]
43 | COc1cc2[nH]c(-c3ccc(C)cc3)cc(=O)c2cc1OC | – | inconclusive: 20.6 µM [activator, single point]
44 | COc1ccc(C(=O)N2CCC(O)(c3ccc(Cl)cc3)CC2)cc1OC | – | inconclusive: 16.4 µM [inhibitor, single point]
45 | S=C(NC1CCCCC1)N1CCCCC1 | inactive: 3.86% | –
46 | COc1ccc(-c2nn(CCC#N)cc2C(=O)Nc2cccc(C(=O)O)c2)cc1OC | inactive: 10.8% | –
47 | CC(C)(C)c1ccc(C(=O)Nc2ccc(NC(=O)C(=O)O)cc2)o1 | inactive: -6.03% | –
48 | CSc1ccc(/C=C/C(=O)c2ccc(O)cc2)cc1 | – | inconclusive: 14.6 µM [activator, partial curve]

Row | SMILES | activity change, negative = inhibition | Potency
49 | Cc1ccc(C)n1-c1c(C(=O)NN)cnn1-c1ccccc1 | – | inconclusive: 20.6 µM [inhibitor, single point]
50 | CCOc1ccc(/C=N/Nc2nc(=O)[nH]nc2C)cc1OC | – | inconclusive: 20.6 µM [activator, single point]
51 | CNC(=S)N(Cc1ccc(OC)cc1)C1CC(=O)N(c2ccc(C(=O)OC)cc2)C1=O (stereo not given) | – | inconclusive: 25.9 µM [inhibitor, single point]
52 | CCOC(=O)N1CCN(c2c(F)cc3[nH]c(=S)[nH]c3c2Br)CC1 | inactive: -5.76% | –
53 | Cc1ccc2nc(NC(=O)C3CCN(S(=O)(=O)c4cnc[nH]4)CC3)sc2c1 | – | inconclusive: 25.9 µM [inhibitor, single point]
54 | CC(=O)Nc1ccc(NC(=O)COc2cc(C)cc3oc(=O)cc(C)c23)cc1 | inactive: -1.52% | –
55 | O=C(Nc1ccc2oc(-c3ccccc3F)nc2c1)c1ncn[nH]1 | – | inconclusive: 3.66 µM [activator, partial curve]
56 | O=C(COC(=O)C1CCC1)Nc1ccc(Oc2ccccc2)cc1 | – | inconclusive: 18.4 µM [activator, single point]
57 | O=C(Cn1nc(-c2ccccc2)ccc1=O)NCc1ccc(F)cc1 | – | inconclusive: 29.1 µM [activator, single point]
58 | C/C(=N\NC(=O)c1c(Cl)cnn1C)c1cccc(NC(=O)c2ccc(C)cc2)c1 | – | inconclusive: 9.2 µM [activator, partial curve]
59 | CCSc1ccc2nnc(-c3cccc(F)c3)n2n1 | – | active: 20.6 µM
60 | COc1ccc(/C=C2\SC(=S)N(N3CCOCC3)C2=O)c(OC)c1 | inactive: 10.3% | –
61 | COc1ccc(OCCC(=O)OCC(=O)Nc2ccc(S(=O)(=O)N3CCOCC3)cc2)cc1 | inactive: 9.95% | –
62 | COc1ccc(N2CC(O)=C(c3nc(-c4ccc(F)cc4)cs3)C2=N)cc1OC | – | active: 13 µM
63 | COc1ccc(-c2cc(=O)c3cc(C)ccc3[nH]2)cc1 | – | inconclusive: 9.2 µM [activator, partial curve]
64 | C[C@@H]1COC(=O)[C@H](NC(=O)OCC2c3ccccc3-c3ccccc32)C/C=C\C[C@@H](CC(=O)N[C@H](CO)Cc2ccccc2)C(=O)N1 | – | inconclusive: 29.1 µM [inhibitor, single point]
65 | CCn1c(SCC(=O)C(C)(C)C)nnc1-c1ccccn1 | – | inconclusive: 11.6 µM [activator, partial curve, poor fit]
66 | O=[N+]([O-])c1ccc(Cl)c(C[n+]2cccc3ccccc32)c1 | inactive: -13.6% | –
67 | O=C(NCCS(=O)(=O)N1CCN(c2ccccc2)CC1)c1ccco1 | – | inconclusive: 2.06 µM [activator, partial curve, poor fit]
68 | Cc1cc(F)ccc1S(=O)(=O)N1CCCOC1CNC(=O)C(=O)NC1CC1 (stereo not given) | inactive: 0% | –
69 | Cc1ccc(OCC(=O)NCCCNC(=O)c2cccnc2)cc1 | – | inconclusive: 29.1 µM [inhibitor, single point]
70 | CCCCCC(=O)Nc1cccc(C2=NOC3(C2)C[C@H](C(N)=O)N(C(=O)c2ccccc2C(=O)c2ccccc2)C3)c1 (stereo not given in full) | inactive: -23% | –

Fetched by compound from the entries so far:
Row | SMILES | activity change, negative = inhibition | Potency
15 | C=CCn1c(SCCNC(C)=O)nc2cc(-c3ccccc3)sc2c1=O | inactive: 1.42% | –
37 | CCOC(=O)c1c(C)noc1-c1ccc(Br)o1 | inactive: 7.02% | –
22 | COc1ccc(C2=NOC(Cn3nc(-c4ccccc4)cc3C(=O)NCc3cccc(Br)c3)C2)cc1 (stereo not given) | – | inconclusive: 6.51 µM [inhibitor, single point]
16 | CC(=O)c1cccc(NC(=O)C2CCCN2S(=O)(=O)c2cccc3cccnc23)c1 (stereo not given) | – | inconclusive: 29.1 µM [inhibitor, partial curve, poor fit]
20 | Cc1nnc(SCc2nc(N)nc(Nc3ccccc3)n2)s1 | – | inconclusive: 17.8 µM [activator, partial curve, poor fit]
